Laboratory results taken from PMC4111544.

T1: small exported membrane protein 1 (SEMP1) with a C-terminal 3xHA tag (Plasmodium falciparum) (UniProt Q8IC43)
T1 sequence: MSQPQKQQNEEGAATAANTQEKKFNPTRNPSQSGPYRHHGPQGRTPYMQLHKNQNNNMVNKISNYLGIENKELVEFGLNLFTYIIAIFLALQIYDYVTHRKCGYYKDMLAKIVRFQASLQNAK

B1: Plasmodium exported protein PF3D7_0702500 (protein, UniProt Q8IC42 1-253)
chain: MAYPLLEDDLRSIRVAFGTCPGNSTMQFGERFWQGFFFGVIIFFVLSKYIRSYKKRKGMRILKSSSVTKGRLYRGTVFDEDDNVDGHHKKTKAHGLFEEIEKRNGFDLNDDTTNSNNLGEGTHSAVHNLDGQKESQLYKNNSDGSTENHLSGSNSDGRNSSQHSVGSHSVSSQEHKKEHSTHDLPAGRNYSLGNLSTGTTSQGSTSSRHYSLGGQPSSSGRSFSGSKYNTSNLASSSTTESSVSGLNTNEAHV
B2: MAHRP2 (protein, UniProt Q8IDG8 1-137)
chain: MQPCPYDVYNQINHVGTHWAQHLGEHLHHLAHMHQHTPHVHHHIPHVHTLAHDRPCMPITAFFCRHHEHCSSHLMLIFLLLAFFLVVVYRLYNEVVNSAKTVRIVNITPVNEEHKAEASKEQSKSTSDSSTSTQQTL
B3: 60S ribosomal protein L12 (protein, UniProt Q8I3T8 1-165)
chain: MAKKPDPNEIKYVFIRQVGGEVGASSVLSPKLGPLGLSPKKVGDDIAKETQSWKGLKICVKLTIQNRQAKVEVVPTSAALILKELNEAPRDRKKVKNIKHNGNLKLEQVYSIARVMKEKSRAKEFKGTVKEMLGTCNSIGCTVDGKKPTTIQEMIDSGEIDVPLE
B4: REX1 (protein, UniProt Q8I2G1 1-713)
chain: MADYSSNEEETPKEEKKISKLEDMQSPFDYKRFFRKYTIFAPFILVYFTLMFFVNSTVQNGTMLLNSIKENANSKLPALLWNKIIGKGNDNEVNFEDKKMIEGNKSGNGEEHNKHKRRQVDNQEDDYDVDEYGNPKSGAPYKSEEEHAEQQNYYGEHHGDYEDKNEYHGKSNIENNKDFPEQGQKDEEKEKEAKKKAEEFEKRKQLHEEEKRKARETQQALHKKLQEQLQRLKEQEKKKVEHQKLIHKIKTQGDVDPAVQKVLNKYNQKEKDEEQQILKIRDLQVQLRHIQQRIQSLKSTNNGQPKTKDEYLQLKDLQKEYYDKEQDEQNMIEHLEHLQGEMQYLYEELQIVYDENQAKTAQAKDEQHELKPQAEKDASKLTTTYDQTKEVKPQAEKDASKLTTTYDQTKEVKPQAEKDASKLTTTYDQTKEVKPQAEKDALAKTENQNGELLPQAEKDASKLTTTYDQTKEVKPQAEKDALAKTENQNGELLPQAEKDASKLTTTYDQTKEVKPQAEKDALAKTENQNGELLPQAEKDASKLTTTYDQTKEVKPQAEKDALAKTENQSGELLTQAEKDALAKKESEAPKGSSTSDKNTTENQLNAEAQSEVKPQWQKDYWKSKNESQTETNNTWKKDSWKKKTEEQQNAEAQQEVKSPYEKYSYNKETKPQNDKYTLNKEVKPQNEKYTYNQKVKAENTESEKSLLESSVFN
B5: Conserved Plasmodium protein PF3D7_0601900 (protein, UniProt C6KSL9 1-128)
chain: MTDHLLDFNMYGSQLHNLLHNAFSTCLEESERTCKRTYVVAILLAFLVLHALLYMKYKKNFKLSGLFKKSKKRTKMSKHYEDDDDDDDYQPPRHSSLPNERKTSSSSRQAARSHSSSSSVYASANAEN
B6: Plasmodium exported protein PF3D7_1353100 (protein, UniProt Q8IDG9 1-285)
chain: MKTYNSLNNIMGFQGEHNSTVPSYNKSSMEKSSNIRNNRGRVYSFHFLVKIFACSLFIWTLYVSHNGNVSTNVDVVNTTQGLSKGRILTQGDHHEETEDVNHKAHHTGERTSYTEVKHRRSSSNSHVESNTFQNKEETEVNADSAEQQNYDKEPSQKGKDVKKMLKKADNFIETKLVSALHPKKNHLLKLAILAFPIFMEHVSNIFKRRGFKYIGSAMHLVCLVFYVYIFKVIVNHLLTNKEDRFAHMESHGKHAFDDNKSKKKPKDNKRYGSGSHDHEEEVVEA

Each binder was assayed against T1, small exported membrane protein 1 (SEMP1) with a C-terminal 3xHA tag (Plasmodium falciparum) (assay: affinity purification with mass spectrometry; trophozoite stage 3D7 parasites expressing SEMP1-3xHA cross-linked with 1% formaldehyde, saponin released, lysed in 1% SDS and sonicated; α-HA affinity matrix, 4 °C, 16 h; washed with 50 mM Tris-HCl pH 7.4, 150 mM NaCl, 1 mM EDTA, 1% NP40; eluted with HA peptide; LC-MS/MS of TCA precipitated elution or Coomassie-stained gel slices; negative control with excess HA peptide during binding).
With B1 the binding was “binds”.
B2 was tested, and the binding was “binds”.
B3 was tested, and the binding was “binds”.
In the case of B4, the binding is reported as “binds”.
In the case of B5, the binding is reported as “binds”.
With B6 the binding was “binds”.

No constants are given. Whether binding was seen depends on the method and setting. Binding seen in cells or lysates may run through a third protein. A yes stands for co-enrichment or nearness to the bait. Other partners may have been found. Tags and fused reporters may be left off the sequences shown.
